Assay results: publication doi:10.1101/2020.10.29.360891
No constants are given. Whether binding was seen depends on the method and setting. Binding seen in cells or lysates may run through a third protein. Some entries that bind do so weakly or less than the wild type.

Experiments:
[1] = target: T1, LAP-Rab34-S166N (human) (UniProt Q9BZG1); assay: co-IP
T1 sequence: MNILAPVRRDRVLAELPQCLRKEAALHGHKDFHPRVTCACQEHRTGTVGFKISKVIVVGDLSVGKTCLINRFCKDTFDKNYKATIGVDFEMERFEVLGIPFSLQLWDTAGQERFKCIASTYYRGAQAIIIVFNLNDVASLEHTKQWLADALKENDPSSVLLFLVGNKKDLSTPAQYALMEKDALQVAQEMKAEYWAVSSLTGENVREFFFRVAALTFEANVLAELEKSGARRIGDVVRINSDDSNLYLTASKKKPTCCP

[2] = target: T2, LAP-Rab34-L61D (human) (UniProt Q9BZG1); assay: co-IP
T2 sequence: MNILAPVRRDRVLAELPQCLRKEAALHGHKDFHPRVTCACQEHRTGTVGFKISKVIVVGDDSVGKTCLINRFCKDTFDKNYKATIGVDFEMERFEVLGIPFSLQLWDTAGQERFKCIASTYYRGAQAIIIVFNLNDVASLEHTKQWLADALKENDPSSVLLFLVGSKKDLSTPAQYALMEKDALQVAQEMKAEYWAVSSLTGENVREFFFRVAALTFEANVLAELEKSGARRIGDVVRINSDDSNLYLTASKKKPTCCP

B1: RILPL1 (protein, UniProt Q5EBL4 1-403)
chain: MEEERGSALAAESALEKNVAELTVMDVYDIASLVGHEFERVIDQHGCEAIARLMPKVVRVLEILEVLVSRHHVAPELDELRLELDRLRLERMDRIEKERKHQKELELVEDVWRGEAQDLLSQIAQLQEENKQLMTNLSHKDVNFSEEEFQKHEGMSERERQVMKKLKEVVDKQRDEIRAKDRELGLKNEDVEALQQQQTRLMKINHDLRHRVTVVEAQGKALIEQKVELEADLQTKEQEMGSLRAELGKLRERLQGEHSQNGEEEPETEPVGEESISDAEKVAMDLKDPNRPRFTLQELRDVLHERNELKSKVFLLQEELAYYKSEEMEEENRIPQPPPIAHPRTSPQPESGIKRLFSFFSRDKKRLANTQRNVHIQESFGQWANTHRDDGYTEQGQEALQHL
binding [1]: binds
binding [2]: binds
